In article doi:10.1101/2020.07.20.211417:
These are yes or no findings as the source states them, for the method shown. Binding seen in cells or lysates may run through a third protein. Some entries that bind do so weakly or less than the wild type. For part of these data: Sequences can lack the tags named with a protein.

By UniProt entry, the sequences of proteins in these tests, tags left out.
UniProt P62993: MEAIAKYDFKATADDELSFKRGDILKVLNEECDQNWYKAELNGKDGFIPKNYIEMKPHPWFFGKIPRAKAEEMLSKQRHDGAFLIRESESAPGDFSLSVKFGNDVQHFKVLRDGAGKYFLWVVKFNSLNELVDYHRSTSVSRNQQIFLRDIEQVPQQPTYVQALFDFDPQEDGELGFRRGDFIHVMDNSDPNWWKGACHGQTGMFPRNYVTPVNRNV
UniProt O00459: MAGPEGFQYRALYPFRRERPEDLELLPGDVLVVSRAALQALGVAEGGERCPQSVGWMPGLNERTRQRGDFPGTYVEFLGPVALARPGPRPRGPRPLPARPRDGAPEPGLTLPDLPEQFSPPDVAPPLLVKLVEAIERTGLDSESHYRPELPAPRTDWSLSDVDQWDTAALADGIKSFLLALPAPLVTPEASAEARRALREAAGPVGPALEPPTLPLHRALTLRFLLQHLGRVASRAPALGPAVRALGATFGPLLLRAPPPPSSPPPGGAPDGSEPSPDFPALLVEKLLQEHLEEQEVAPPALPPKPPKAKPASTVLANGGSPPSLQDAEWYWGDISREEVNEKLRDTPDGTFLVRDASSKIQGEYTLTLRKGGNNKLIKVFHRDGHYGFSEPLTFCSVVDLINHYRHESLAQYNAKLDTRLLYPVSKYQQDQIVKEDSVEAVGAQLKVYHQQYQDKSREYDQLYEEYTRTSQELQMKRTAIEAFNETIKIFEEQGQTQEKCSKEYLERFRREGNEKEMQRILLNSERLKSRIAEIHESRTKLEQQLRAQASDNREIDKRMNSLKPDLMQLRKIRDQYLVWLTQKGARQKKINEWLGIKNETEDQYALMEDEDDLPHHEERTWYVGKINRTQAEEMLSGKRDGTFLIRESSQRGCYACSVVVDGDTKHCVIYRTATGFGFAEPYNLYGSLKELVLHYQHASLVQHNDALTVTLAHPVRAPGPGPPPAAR

Key:
[1] = target: T1, Myc-tagged IRS4, tyrosine-phosphorylated by co-expressed FER-WT (UniProt O14654); assay: co-IP
T1 sequence: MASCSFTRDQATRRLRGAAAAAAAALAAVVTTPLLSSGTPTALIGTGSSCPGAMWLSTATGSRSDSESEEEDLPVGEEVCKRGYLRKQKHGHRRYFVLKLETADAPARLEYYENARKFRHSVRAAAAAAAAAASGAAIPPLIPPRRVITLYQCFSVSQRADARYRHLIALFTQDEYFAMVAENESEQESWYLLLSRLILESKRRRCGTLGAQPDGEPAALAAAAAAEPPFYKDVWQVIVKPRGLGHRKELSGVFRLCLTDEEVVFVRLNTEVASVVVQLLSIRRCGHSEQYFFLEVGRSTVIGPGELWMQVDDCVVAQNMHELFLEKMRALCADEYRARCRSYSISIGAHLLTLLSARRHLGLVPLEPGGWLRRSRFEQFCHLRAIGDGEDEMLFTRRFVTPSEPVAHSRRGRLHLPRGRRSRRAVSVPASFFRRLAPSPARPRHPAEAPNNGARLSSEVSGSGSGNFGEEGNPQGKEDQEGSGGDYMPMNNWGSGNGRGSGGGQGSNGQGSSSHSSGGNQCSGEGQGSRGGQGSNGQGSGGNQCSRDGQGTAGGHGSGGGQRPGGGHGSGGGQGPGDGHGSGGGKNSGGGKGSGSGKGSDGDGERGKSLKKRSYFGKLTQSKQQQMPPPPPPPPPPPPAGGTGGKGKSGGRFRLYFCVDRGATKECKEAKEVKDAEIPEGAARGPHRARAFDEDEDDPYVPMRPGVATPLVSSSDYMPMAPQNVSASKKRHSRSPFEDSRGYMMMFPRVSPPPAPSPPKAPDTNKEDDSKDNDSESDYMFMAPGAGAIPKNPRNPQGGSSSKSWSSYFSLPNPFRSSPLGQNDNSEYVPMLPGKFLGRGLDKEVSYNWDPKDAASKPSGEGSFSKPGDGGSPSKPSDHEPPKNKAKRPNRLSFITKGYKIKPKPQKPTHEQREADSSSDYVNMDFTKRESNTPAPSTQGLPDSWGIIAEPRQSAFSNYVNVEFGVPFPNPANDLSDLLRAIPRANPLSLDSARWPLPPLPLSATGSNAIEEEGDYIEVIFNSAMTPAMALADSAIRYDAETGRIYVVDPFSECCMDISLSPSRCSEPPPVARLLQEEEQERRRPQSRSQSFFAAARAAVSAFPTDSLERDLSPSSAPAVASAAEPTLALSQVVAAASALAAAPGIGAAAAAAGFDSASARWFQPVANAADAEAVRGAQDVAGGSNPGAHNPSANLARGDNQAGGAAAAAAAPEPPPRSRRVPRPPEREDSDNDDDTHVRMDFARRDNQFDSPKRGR

[2] = target: T2, IRS4, endogenous in OVCAR-5 cells (human (endogenous in OVCAR-5)) (UniProt O14654); assay: co-IP
T2 sequence: T1 sequence

binding [1] | binding [2] | Substance
binds |  | GRB2 (from UniProt P62993 1-217)
binds | binds | PIK3R2/p85β, the regulatory subunit of PI-3K (from UniProt O00459 1-728)
